Source: PubChem BioAssay AID2551 (National Center for Advancing Translational Sciences (NCATS), 2010)
In all, about 310,000 compounds went through this assay and about 17,000 (5.5%) were called active. The shares of active, inactive and inconclusive entries below differ from those in the screen. The call rests on the fitted dose curve; in most records, active means well fitted inhibition curve with a large enough effect; inconclusive means small, poorly fitted or top-dose-only effect, or effect the other way; inactive means no such curve, though single readings can be large or run the other way. Where the call is inconclusive, the potency comes from a doubtful curve fit.

Amino acid sequences for entries named in this document (tags omitted). A change or cut given only in a name is not applied to a line headed by its entry.
UniProt P51450: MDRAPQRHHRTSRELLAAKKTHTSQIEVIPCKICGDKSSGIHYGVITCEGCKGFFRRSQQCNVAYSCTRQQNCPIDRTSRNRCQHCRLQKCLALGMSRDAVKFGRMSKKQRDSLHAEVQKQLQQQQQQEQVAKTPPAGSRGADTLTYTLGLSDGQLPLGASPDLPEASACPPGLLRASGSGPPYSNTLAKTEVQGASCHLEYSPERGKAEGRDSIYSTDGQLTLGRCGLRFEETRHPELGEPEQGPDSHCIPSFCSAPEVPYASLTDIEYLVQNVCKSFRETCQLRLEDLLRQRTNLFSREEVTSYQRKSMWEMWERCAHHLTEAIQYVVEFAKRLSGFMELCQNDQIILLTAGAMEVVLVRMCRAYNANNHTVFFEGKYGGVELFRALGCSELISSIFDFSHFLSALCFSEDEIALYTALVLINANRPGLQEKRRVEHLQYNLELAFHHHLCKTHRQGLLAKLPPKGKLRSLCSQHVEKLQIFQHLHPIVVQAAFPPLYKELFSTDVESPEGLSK

Target: Nuclear receptor ROR-gamma (Mus musculus) (UniProt P51450)
Experiment: qHTS for inhibitors of ROR gamma transcriptional activity; further: nearly all actives have a fitted effect of over 60% in size
Details: Drosophila S2 Gal4-RORgamma UAS-luciferase reporter, 20 h; activity change, negative = inhibition: at 53.6 µM (top of the series)
How it was run: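 Compounds are pin-transferred onto Drosophila Schneider cells expressing a copper-inducible Gal4–ROR gamma transactivation domain fusion. After 1 hr, copper sulfate is added to 700 uM final; luciferase is read 20 hr later.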
On the % scale 0 is the no-effect control and ±100 the full control effect; potency means the concentration at half of the fitted maximal effect.

Row | SMILES | Potency | activity change, negative = inhibition
1 | Cc1ccccc1OCC(=O)Nc1ccc(N2CCN(C(=O)c3ccco3)CC2)cc1 | inconclusive: 7.08 µM [activator, partial curve, poor fit] | 
2 | Cc1cc(C)c2c(n1)nn1c(-n3ccnc3)cc(C)nc21 | active: 10 µM | 
3 | O=C(Nc1ccccc1)N1C2CCC1CC(O)(c1cccnc1)C2 (stereo not given) | inconclusive: 35.5 µM [activator, single point] | 
4 | COc1ccc(/C=C/C(=O)NC(=S)Nc2ccc(S(=O)(=O)Nc3ccc(OC)nn3)cc2)cc1 | inconclusive: 25.1 µM [activator, single point] | 
5 | Brc1ccc2nc3c(n2c1)CCCC3 | active: 12.6 µM | 
6 | FC(F)Oc1ccc(N=C2SCC3CCCCN23)cc1 (stereo not given) | inconclusive: 11.2 µM [activator, partial curve] | 
7 | CC(=O)c1cccc(CN2CCC(C(=O)Nc3ccc(-c4cccc(C)c4)cc3)CC2)c1 | inconclusive: 14.1 µM [inhibitor, single point] | 
8 | S=C(Cc1cccnc1)N1CCOCC1 |  | inactive: 2.48%
9 | Cc1ccc(/C=N/NC(=O)c2c(-c3ccccc3)noc2C)o1 | active: 12.6 µM | 
10 | Cc1ccc(C(=O)NC(=S)NNC(=O)c2ccccc2)cc1 | inconclusive: 14.1 µM [inhibitor, partial curve, poor fit] | 
11 | COc1ccc(C(=O)Oc2ccc(/C=N/NC(=O)c3ccccc3OC)cc2[N+](=O)[O-])cc1 | inconclusive: 0.447 µM [activator, full curve] | 
12 | COc1ccc(OC)c(/C(O)=C/C(=O)C(=O)Nc2cc(C)ccc2OC)c1 | active: 3.55 µM | 
13 | Cc1ccc(C)n1-c1ccc(N2CCOCC2)c(Br)c1 |  | inactive: -2.23%
14 | CCC(C(=O)NC1CCCC1)n1c(SCc2cccc(C)c2)nc2ccncc21 (stereo not given) | active: 10 µM | 
15 | CCCCCCCCCCOCCC(=O)O |  | inactive: -3.99%
16 | CCOC(=O)c1ccc2ncc(-c3ccccc3)nc2c1 | inconclusive: 5.01 µM [activator, partial curve] | 
17 | Cc1ccc2oc(=O)c3c4cc(O)c(O)cc4oc3c2c1 | inconclusive: 12.6 µM [inhibitor, partial curve] | 
18 | O=C(O)/C=C/C(=O)Nc1ccc(Cl)c(C(=O)O)c1 |  | inactive: -6.35%
19 | COC(=O)c1ccc(NC(CC(C)C)C(=O)OC)c([N+](=O)[O-])c1 (stereo not given) | inconclusive: 11.2 µM [inhibitor, partial curve, poor fit] | 
20 | CCCCCN1CC(O)=C(c2nc3ccccc3[nH]2)C1=N | inconclusive: 5.62 µM [inhibitor, partial curve] | 
21 | COc1ccc(CNC(=O)CCCn2c(=S)[nH]c3cc4c(cc3c2=O)OCO4)cc1 |  | inactive: -23%
22 | Cc1cc(Nc2cccc(F)c2)nc(-c2ccccc2O)n1 | inconclusive: 35.5 µM [activator, single point] | 
23 | Cc1ccc(-c2nc(-c3cccnc3)sc2CC(=O)Nc2ccc3nc(C)sc3c2)cc1 | inconclusive: 11.2 µM [activator, partial curve] | 

Row | SMILES | Potency | activity change, negative = inhibition
24 | C=CCn1c(SCC(=O)NNC(=S)Nc2ccccc2)nnc1-c1ccccc1 | inconclusive: 0.112 µM [inhibitor, full curve] | 
25 | CCOc1ccc(NC(=O)Cn2sc3nc(C)cc(C)c3c2=O)cc1 | inconclusive: 12.6 µM [inhibitor, partial curve, poor fit] | 
26 | O=C(CSC1=NS(=O)(=O)c2ccccc21)Nc1ccccc1 | inconclusive: 35.5 µM [inhibitor, single point] | 
27 | COc1ccc(-n2c(=O)[nH]cc(C(=O)Nc3ccc4c(c3)OCCO4)c2=O)cc1OC |  | inactive: 13.4%
28 | Cc1ccc2nc(-c3ccc(NC(=O)CSc4ccccc4)cc3)[nH]c2c1 | inconclusive: 25.1 µM [inhibitor, single point] | 
29 | O=C(c1ccccc1F)N1CCN(S(=O)(=O)c2ccc3ccccc3c2)CC1 | inconclusive: 35.5 µM [activator, single point] | 
30 | Nc1c(C(=O)NCCc2ccccc2)sc2nc(N3CCOCC3)c3c(c12)CCCC3 | inconclusive: 22.4 µM [activator, single point] | 
31 | COc1cc2c(cc1OC)CN(c1nc(-c3cccnc3)nc3ccccc13)CC2 |  | inactive: 19.8%
32 | CC(C)n1nnnc1SCC(=O)Nc1ccccc1F |  | inactive: 2.43%
33 | CSc1ccc(C(=O)N2CCc3ccc(NC(=O)c4ccccn4)cc3C2)cc1 | inconclusive: 11.2 µM [activator, partial curve] | 
34 | O=C(CSc1n[nH]c(=O)n1-c1cccnc1)Nc1ccccc1Cl |  | inactive: 8.53%
35 | Cc1c(Cl)cccc1NC(=S)NCCc1ccc(Cl)cc1 | active: 5.62 µM | 
36 | C/C(=N\NC(=O)c1n[nH]c2c1CCC2)c1ccco1 | active: 8.91 µM | 
37 | COc1cc2c3nnc(-c4ccc(F)cc4)c-3cn(Cc3cccc(F)c3)c2cc1OC | inconclusive: 7.94 µM [inhibitor, partial curve] | 
38 | COc1cccc(CN2CCN(Cc3ccc4cccc(F)c4n3)CC2CCO)c1 (stereo not given) | inconclusive: 7.08 µM [activator, partial curve] | 
39 | COc1ccc(-c2cc(=O)c3c(O)c(OC)c(O)cc3o2)cc1 | inconclusive: 12.6 µM [inhibitor, partial curve, poor fit] | 
40 | O=C(Cc1ccc(Nc2nc3ccc(Br)cc3[nH]2)cc1)NCCc1cccs1 | inconclusive: 17.8 µM [inhibitor, single point] | 
41 | COc1ccc(S(=O)(=O)Nc2ccc3c(c2)OCO3)cc1Cl | inconclusive: 12.6 µM [activator, partial curve] | 
42 | Cc1ccc(-c2nc3cnccn3c2Nc2ccccc2)o1 | inconclusive: 35.5 µM [inhibitor, single point] | 
43 | COC(=O)c1cccc(CSc2nnc(-c3ccco3)n2-c2ccccc2)c1 | inconclusive: 2.82 µM [activator, full curve, poor fit] | 
44 | O=C(CSc1ccc(C(F)(F)F)cc1[N+](=O)[O-])Nc1ccccc1 | inconclusive: 35.5 µM [inhibitor, single point] | 
45 | c1ccc(OCc2nc(-c3ccccc3)no2)cc1 | inconclusive: 3.98 µM [activator, full curve, poor fit] | 

A draw from above in order of heavy-atom count, falling:
Row | SMILES | Potency | activity change, negative = inhibition
4 | COc1ccc(/C=C/C(=O)NC(=S)Nc2ccc(S(=O)(=O)Nc3ccc(OC)nn3)cc2)cc1 | inconclusive: 25.1 µM [activator, single point] | 
37 | COc1cc2c3nnc(-c4ccc(F)cc4)c-3cn(Cc3cccc(F)c3)c2cc1OC | inconclusive: 7.94 µM [inhibitor, partial curve] | 
27 | COc1ccc(-n2c(=O)[nH]cc(C(=O)Nc3ccc4c(c3)OCCO4)c2=O)cc1OC |  | inactive: 13.4%
14 | CCC(C(=O)NC1CCCC1)n1c(SCc2cccc(C)c2)nc2ccncc21 (stereo not given) | active: 10 µM | 
40 | O=C(Cc1ccc(Nc2nc3ccc(Br)cc3[nH]2)cc1)NCCc1cccs1 | inconclusive: 17.8 µM [inhibitor, single point] | 
28 | Cc1ccc2nc(-c3ccc(NC(=O)CSc4ccccc4)cc3)[nH]c2c1 | inconclusive: 25.1 µM [inhibitor, single point] | 
34 | O=C(CSc1n[nH]c(=O)n1-c1cccnc1)Nc1ccccc1Cl |  | inactive: 8.53%
22 | Cc1cc(Nc2cccc(F)c2)nc(-c2ccccc2O)n1 | inconclusive: 35.5 µM [activator, single point] | 
16 | CCOC(=O)c1ccc2ncc(-c3ccccc3)nc2c1 | inconclusive: 5.01 µM [activator, partial curve] | 
